Screen size: about 300,000 compounds; about 3,700 (1.2%) were called active. The shares of active, inactive and inconclusive entries below differ from those in the screen. Calls follow the shape of the full dose curve; tested in HEK293 cells. Where the call is inconclusive, the potency comes from a doubtful curve fit.
assay: qHTS for Inhibitors of binding or entry into cells for Lassa Virus; conditions: Lassa virus pseudotype entry inhibition, cell reporter; series mostly up to 37.9 µM; also: nearly all actives have a fitted effect of over 50% in size
Potency is read from the fitted curve at half-maximal effect.

SMILES | Potency
O=C(OCc1ccc(-c2ccccc2)cc1)c1cccc(O)c1 | inconclusive: 35.5 µM [inhibitor, single point]
Cn1c(SCC(=O)N2CCCc3ccccc32)ncc(C(=O)Nc2ccc(Cl)cc2)c1=O | inactive
Fc1cccc(Cl)c1COc1ccc(-c2nnco2)cc1 | inconclusive: 3.55 µM [inhibitor, full curve]
CC(C)CCNC(=O)CO/N=C/c1ccccc1OC(F)F | inconclusive: 35.5 µM [inhibitor, single point]
O=C1NC(=O)C(Cc2ccc(Cl)cc2)(c2ccccc2)N1 (stereo unspecified) | inconclusive: 6.31 µM [inhibitor, partial curve, poor fit]
CN=c1sc2ccccc2n1CC(O)COc1ccccc1 (stereo unspecified) | inactive
COc1cc(NC(=O)CN2CCN(c3ccccc3F)CC2)cc(OC)c1 | inconclusive: 7.08 µM [inhibitor, partial curve]
O=C(CC1CCCC1)Nc1ccc(Cl)c(S(=O)(=O)N2CCOCC2)c1 | active: 2.82 µM
COc1ccc(N2CCN(C(=O)Cn3nnc(-c4ccccc4N)n3)CC2)cc1 | inconclusive: 11.2 µM [inhibitor, single point]
O=C1SC(SCc2ccccc2)=N/C1=C\c1ccco1 | inactive
O=C(CCSc1ccc(Br)cc1)Nc1cccnc1 | inconclusive: 35.5 µM [inhibitor, partial curve, poor fit]
COc1ccc(NC(=O)C2C3C=CC4(O3)C2C(=O)N(CCN2CCCCC2)C4C(=O)NC2CCCC(C)C2C)cc1 (stereo unspecified) | inactive
CCCc1ccc(Oc2cc(C)nc(N3CCOCC3)n2)cc1 | inconclusive: 15.8 µM [inhibitor, partial curve, poor fit]
Cc1cc(C(=O)OCc2nnc(-c3ccccc3)o2)c(C)n1-c1ccccc1 | inconclusive: 35.5 µM [inhibitor, single point]
CCOc1cc(C(=O)Nc2cccc(-c3nc4ccccc4o3)c2)cc(OCC)c1OCC | inconclusive: 3.98 µM [activator, single point]
O=C(COc1ccc(Cl)cc1Br)N1CCN(c2ccccc2)CC1 | inactive
COc1ccc(C2=NN(CN3C(=O)C(=O)c4ccccc43)C(c3ccc(Br)cc3)C2)cc1 (stereo unspecified) | inactive
CSc1cccc(-n2cc(-c3ccc4c(c3)OCO4)[nH]c2=O)c1 | inactive
Cc1c(-c2ccccc2)n[nH]c1C(=O)N=Nc1c(O)[nH]c2ccccc12 | inconclusive: 35.5 µM [inhibitor, single point]
CCCCn1c(O)c(C(=O)/C=C/c2c[nH]c3ccccc23)c(=O)[nH]c1=O | inconclusive: 8.91 µM [inhibitor, partial curve, poor fit]
CCCc1nnc(NC(=O)c2cccs2)s1 | inconclusive: 4.61 µM [activator, full curve]
O=C(/C=C/c1ccccc1)NC(=S)Nc1ccccc1O | inconclusive: 7.08 µM [inhibitor, full curve, poor fit]

13 entries from above, arranged by SMILES length, falling:
SMILES | Potency
COc1ccc(NC(=O)C2C3C=CC4(O3)C2C(=O)N(CCN2CCCCC2)C4C(=O)NC2CCCC(C)C2C)cc1 (stereo unspecified) | inactive
COc1ccc(C2=NN(CN3C(=O)C(=O)c4ccccc43)C(c3ccc(Br)cc3)C2)cc1 (stereo unspecified) | inactive
Cn1c(SCC(=O)N2CCCc3ccccc32)ncc(C(=O)Nc2ccc(Cl)cc2)c1=O | inactive
CCOc1cc(C(=O)Nc2cccc(-c3nc4ccccc4o3)c2)cc(OCC)c1OCC | inconclusive: 3.98 µM [activator, single point]
Cc1c(-c2ccccc2)n[nH]c1C(=O)N=Nc1c(O)[nH]c2ccccc12 | inconclusive: 35.5 µM [inhibitor, single point]
Cc1cc(C(=O)OCc2nnc(-c3ccccc3)o2)c(C)n1-c1ccccc1 | inconclusive: 35.5 µM [inhibitor, single point]
O=C(CC1CCCC1)Nc1ccc(Cl)c(S(=O)(=O)N2CCOCC2)c1 | active: 2.82 µM
COc1cc(NC(=O)CN2CCN(c3ccccc3F)CC2)cc(OC)c1 | inconclusive: 7.08 µM [inhibitor, partial curve]
O=C(COc1ccc(Cl)cc1Br)N1CCN(c2ccccc2)CC1 | inactive
O=C1NC(=O)C(Cc2ccc(Cl)cc2)(c2ccccc2)N1 (stereo unspecified) | inconclusive: 6.31 µM [inhibitor, partial curve, poor fit]
O=C(OCc1ccc(-c2ccccc2)cc1)c1cccc(O)c1 | inconclusive: 35.5 µM [inhibitor, single point]
Fc1cccc(Cl)c1COc1ccc(-c2nnco2)cc1 | inconclusive: 3.55 µM [inhibitor, full curve]
CCCc1nnc(NC(=O)c2cccs2)s1 | inconclusive: 4.61 µM [activator, full curve]

The list goes on:

SMILES | Potency
Cn1ncc2c(NNC(=O)c3ccc(Cl)cc3Cl)ncnc21 | inactive
O=S(=O)(NCCSc1nnnn1-c1ccccc1)c1ccc(F)cc1 | inactive
CCCCCn1cnc2sc(CC)cc2c1=O | inconclusive: 2.91 µM [activator, single point]
O=C1c2ccccc2C(=O)N1CN(C(=O)c1ccccc1[N+](=O)[O-])c1ccc(F)cc1 | inconclusive: 15.8 µM [activator, single point]
COc1cc(C2C(C(=O)c3cc4ccccc4o3)=C(O)C(=O)N2CCN2CCOCC2)ccc1OCCC(C)C (stereo unspecified) | inconclusive: 25.1 µM [inhibitor, single point]
COc1ccc(Oc2coc3cc(OCC(=O)N4CCCCC4)ccc3c2=O)cc1 | inconclusive: 0.259 µM [inhibitor, full curve, poor fit]
CCCCC/C(=N/O)c1c(C)[nH]c2ccccc12 | inconclusive: 6.31 µM [inhibitor, partial curve]
N#Cc1ccc(-c2ccc(Cl)cc2)nc1Oc1ccc(F)cc1 | inconclusive: 29.1 µM [inhibitor, single point]
Nc1ccc2nc[nH]c2c1 | inconclusive: 17.8 µM [inhibitor, partial curve, poor fit]
CCc1ccc(-c2nc(CN3CCC(C(=O)NCc4ccc(F)cc4)CC3)c(C)o2)cc1 | inconclusive: 29.1 µM [inhibitor, single point]
O=S(=O)(Cc1ccccc1)N1CCN(C2Cc3ccccc3C2)CC1 | inconclusive: 32.6 µM [activator, partial curve, poor fit]
CC(=O)Nc1ccc(NC(=O)C(C)OC(=O)CCCOc2ccc(Cl)c(C)c2)cc1 (stereo unspecified) | inconclusive: 35.5 µM [inhibitor, single point]
O=C(OCC(=O)N1CCN(c2ccccc2)CC1)c1ccc(O)cc1O | inconclusive: 7.94 µM [inhibitor, partial curve, poor fit]
Cc1ccc(-c2nnc(Nc3cccc(Cl)c3)c3ccccc23)cc1S(=O)(=O)NCC1CCCO1 (stereo unspecified) | inconclusive: 3.55 µM [inhibitor, partial curve, poor fit]
O=C(NC1CCCCC1)C(c1cccnc1)N(C(=O)CCl)c1cccc(Cl)c1 (stereo unspecified) | inconclusive: 17.8 µM [inhibitor, partial curve, poor fit]
CC12CC3CC(C)(C1)CC(C(=O)Nc1nncs1)(C3)C2 | inactive
CN(C1CCCCC1)S(=O)(=O)c1ccc2c(c1)c(=O)c(C(=O)NCCc1ccc(Cl)cc1)cn2C | inactive
COc1ccc(NCC(=O)Nc2ccc(Br)cc2F)c(OC)c1 | inconclusive: 22.4 µM [inhibitor, partial curve, poor fit]
COCCN1C(=O)c2[nH]nc(-c3ccccc3O)c2C1c1ccc(OCc2ccccc2)c(OC)c1 (stereo unspecified) | inconclusive: 1.26 µM [inhibitor, full curve, poor fit]
COC(=O)c1c(-c2cccs2)csc1NC(=O)c1ccc(Cl)cc1 | inconclusive: 6.31 µM [activator, full curve, poor fit]
CC(C)c1nc2oc3c(NCc4cccnc4)ncnc3c2c2c1CCC2 | inconclusive: 2.91 µM [activator, partial curve, poor fit]
CN(C)S(=O)(=O)c1cccc(NC(=S)NC(=O)C2CCCCC2)c1 | inconclusive: 7.31 µM [inhibitor, partial curve]

SMILES | Potency
Nc1nc(-c2ccccc2)cc(C(F)(F)F)n1 | inconclusive: 16.4 µM [inhibitor, single point]
COC(=O)Cc1ccc(NC(=S)N2CCCCC2C)cc1 (stereo unspecified) | inconclusive: 35.5 µM [inhibitor, partial curve, poor fit]
COc1ccc(/C(C)=N/NC2=NCCN2)cc1Cl | inactive
CCN(C(=O)Cc1c(C(=O)O)n(C)c2ccccc12)c1ccc(F)cc1 | inconclusive: 35.5 µM [activator, single point]
Cc1nc(-c2ccc(C(F)(F)F)cc2)sc1C(=O)NN | inconclusive: 35.5 µM [inhibitor, single point]
CCOC(=O)c1c(C)sc2c1N(C(=O)CCl)c1cc(Cl)ccc1S2 | inconclusive: 35.5 µM [inhibitor, single point]
COc1ccc2nc(SCC(=O)Nc3ccc4c(c3)CCC4)[nH]c2c1 | inconclusive: 9.2 µM [inhibitor, partial curve]
CCc1ccc(OCC(=O)NNCC(=O)Nc2ccc(OC)cc2)cc1 | inconclusive: 35.5 µM [activator, single point]
O=C(Nc1nccs1)c1cccc(S(=O)(=O)N2CCCC2)c1 | inconclusive: 6.31 µM [inhibitor, single point]
Cc1cc(S(=O)(=O)Nc2ccc(N3CCOCC3)cc2)ccc1Br | inconclusive: 4.47 µM [inhibitor, partial curve, poor fit]
COc1ccccc1N1C(=O)CC(Sc2nc(C)cc(C)n2)C1=O (stereo unspecified) | inactive
CCCNC(=O)c1ccc2c(c1)C1C3CCC(C3)C1C(c1ccccc1)N2 (stereo unspecified) | inconclusive: 18.3 µM [inhibitor, partial curve, poor fit]
Cn1c(=O)[nH]c(=O)c2[nH]c(N(Cc3ccccc3)Cc3ccccc3)nc21 | inconclusive: 35.5 µM [inhibitor, single point]
CCN(CC)c1ccc(NC(=O)c2ccccc2F)cc1S(=O)(=O)Nc1ccccc1OC | inconclusive: 9.2 µM [inhibitor, single point]
O=C(CSc1nc(CCC2CCCC2)nc2ccccc12)NCc1ccc2c(c1)OCO2 | inconclusive: 35.5 µM [inhibitor, single point]
c1ccc(COc2ccc(OCCCCN3CCCCC3)cc2)cc1 | inactive
O=c1c(C=Nc2ccc(Oc3ccccc3)cc2)c[nH]n1-c1cccc(Cl)n1 | inconclusive: 29.1 µM [inhibitor, single point]
Cc1ccc(S(=O)(=O)c2cnc(SCC(=O)Nc3cc(C)cc(C)c3)nc2N)cc1 | inconclusive: 2.82 µM [activator, partial curve, poor fit]
Cc1cccc(OCc2ccc(-c3nc(C#N)c(NCCN(C)C)o3)o2)c1 | inactive
O=S(=O)(NC1=NCCC1)c1cccc(NC(=S)Nc2ccc(OC(F)F)cc2)c1 | inactive
C/C(=N\NC(=O)c1nn(C)cc1Br)c1ccc(NC(=O)c2ccncc2)cc1 | inconclusive: 2.82 µM [activator, partial curve, poor fit]
CC(C)(C)OC(=O)N1CCC(c2c(C(=O)NCc3ccccn3)cnn2-c2ccccc2)CC1 | inconclusive: 1.78 µM [inhibitor, partial curve, poor fit]
